Test results as given in article PMC6445123 (Scientific Reports, 2019).
For part of its entries the source gives two or more results. This list holds those alone. An entry can have further records. The records of an entry do not match, cause unknown; they may come from other doses, times, organisms or constructs than stated.

Target: active Casp6 (Casp6-WT) (Homo sapiens, UniProt P55212, INS179NQTEKLDTNITEVD)
Assay: Casp6-C163A cleavage assay (prodomain cleavage of catalytically inactive Casp6-C163A by active Casp6)
Settings: rate of Casp6-C163A prodomain cleavage vs DMSO control
Protocol: To assess the potency of in silico hits, a fluorescence-based Ac-VEID-AFC cleavage assay was used to measure recombinant active Casp6 reaction rate in the absence or presence of 100 µM concentration of compounds. A 30% inhibition cut off was arbitrarily chosen for further investigation of putative inhibitors. […] AFC signal interference by compound intrinsic fluorescence was ruled out (Fig. S4). Casp6 inhibition was confirmed for seven compounds (C7, C13, C14, S2, S10, S11 and S13) using a colorimetric Ac-VEID-pNA cleavage assay (Table 2, Fig. S3). […] The hits had IC50 values ranging from 13.2 µM to 289 µM (Table 2).
In fluorescence-based Casp6 activity assay, 10 µM Ac-VEID-AFC was added to 20 nM Casp6 in SB with 100 μM compound and 1% dimethyl sulfoxide (DMSO), and reaction rate was measured for 20 min at 37 °C as above. […] In colorimetric Casp6 activity assay, 200 µM Ac-VEID-pNA (N-acetyl-Val-Glu-Ile-Asp-p-nitroanilide, Enzo Life Sciences) was added to 200 nM Casp6 in SB with 100 μM compound, and Ac-VEID-pNA cleavage rate was measured at 37 °C for 30 min in clear 96-well plate (Sartstedt, Nümbrecht, Germany) using Synergy H4 plate reader at 405 nm. Absorbance was converted to the released pNA amount based on a standard curve of 0–250 µM pNA. Cleavage rates were calculated from the linear assay phase and were normalised to 1% DMSO control. […]

With `O=C(CCN1C(=O)C(=Cc2ccccc2Cl)SC1=S)NC12CC3CC(CC(C3)C1)C2` the “% Inhibition with 100 µM compound (Casp6-C163A cleavage assay)” value was “minimal inhibition and 6.3 ± 5.1%”.
